Assay results taken from patent publication US8071348B2, “Protein tyrosine phosphatase substrate-trapping double mutant and uses thereof” (Albert Einstein College of Medicine of Yeshiva University, priority 2002, dated 2011).
The name of at least one read-out is uncertain. [ ]: non-standard residue; d: D form. F2Pmp = N[C@@H](Cc1ccc(C(F)(F)P(=O)(O)O)cc1)C(=O)O

T1: EGFR^988-998 peptide, DADEpYLIPQQG (Homo sapiens, UniProt P18031, Q262A)
T1 construct: The catalytic domain of PTP1B (residues 1 to 321) was used for in vitro study; made in house; host or cells: E. coli (pT7-7 plasmids)
T1 sequence (P18031 1-321 Q262A): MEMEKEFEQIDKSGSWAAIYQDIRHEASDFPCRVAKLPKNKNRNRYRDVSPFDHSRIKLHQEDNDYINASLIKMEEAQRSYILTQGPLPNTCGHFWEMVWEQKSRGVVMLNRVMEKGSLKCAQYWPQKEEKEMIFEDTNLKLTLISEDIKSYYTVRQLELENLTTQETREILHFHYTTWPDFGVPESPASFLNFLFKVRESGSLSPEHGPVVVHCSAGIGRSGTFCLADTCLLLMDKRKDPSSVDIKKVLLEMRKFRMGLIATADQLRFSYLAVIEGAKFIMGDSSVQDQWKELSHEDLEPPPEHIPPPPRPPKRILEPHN


How the values were obtained:
[1] = tested on: EGFR^988-998 peptide, DADEpYLIPQQG; assay: Kinetic constants for PTP1B-catalyzed hydrolysis of pTyr-containing EGFR988-998 peptide; type: biochemical; conditions: EGFR988-998 peptide as substrate; 25° C. and pH 7.0
Source text: The catalytic domain of PTP1B (residues 1 to 321) was used for in vitro study. PTP1B mutants, C215S, D181A, and Q262A, were described previously (9, 25, 26). PTP1B double mutants, D181A/C215S and C215S/Q262A, were generated by PCR reactions, according to the standard procedure of the Quick-Change™ site-directed mutagenesis kit (Stratagene), using pT7-7/PTP1B/C215S as a template. PTP1B double mutants, D181A/C215E and D181A/Q262A, were generated by similar PCR procedures, using pT7-7/PTP1B/D181A as a template. The recombinant wild-type and mutant PTP1Bs were expressed in E. coli, and purified to homogeneity as described (25, 27). Protein concentration was determined from absorbance measurement at 280 nm, using an absorbance coefficient of 1.24 for 1 mg/ml PTP1B.
All assays were performed at 25° C. in buffer (pH 7.0, ionic strength=0.15 M) containing 50 mM 3,3-dimethylglutarate and 1 mM EDTA. A continuous spectrophotometric assay, previously described (28), was employed to determine kcat and Km for the pTyr-containing peptides. The dephosphorylation reaction was monitored by either an increase in absorbance at 282 nm, or an increase in fluorescence at 305 nm. Fluorometric and absorbance determinations were performed on a Perkin-Elmer LS50B fluorometer and a Perkin-Elmer Lambda 14 spectrophotometer, respectively. The instruments were equipped with a water-jacketed cell holder, permitting maintenance of the reaction mixture at the desired temperature (25° C.).

[2] = biological target: T1, EGFR^988-998 peptide, DADEpYLIPQQG; conditions: EGFR988-998 peptide as substrate; 30° C. and pH 7.0 (26); cited from earlier work

| Molecule | kcat/Km [1] | kcat/Km [2] |
| --- | --- | --- |
| wild-type PTP1B, catalytic domain (residues 1 to 321) (protein) MEMEKEFEQIDKSGSWAAIYQDIRHEASDFPCRVAKLPKNKNRNRYRDVSPFDHSRIKLHQEDNDYINASLIKMEEAQRSYILTQGPLPNTCGHFWEMVWEQKSRGVVMLNRVMEKGSLKCAQYWPQKEEKEMIFEDTNLKLTLISEDIKSYYTVRQLELENLTTQETREILHFHYTTWPDFGVPESPASFLNFLFKVRESGSLSPEHGPVVVHCSAGIGRSGTFCLADTCLLLMDKRKDPSSVDIKKVLLEMRKFRMGLIQTADQLRFSYLAVIEGAKFIMGDSSVQDQWKELSHEDLEPPPEHIPPPPRPPKRILEPHN | (1.2 ± 0.1) × 10^7 M^−1 s^−1 | – |
| PTP1B/D181A, catalytic domain (residues 1 to 321) (protein) MEMEKEFEQIDKSGSWAAIYQDIRHEASDFPCRVAKLPKNKNRNRYRDVSPFDHSRIKLHQEDNDYINASLIKMEEAQRSYILTQGPLPNTCGHFWEMVWEQKSRGVVMLNRVMEKGSLKCAQYWPQKEEKEMIFEDTNLKLTLISEDIKSYYTVRQLELENLTTQETREILHFHYTTWPAFGVPESPASFLNFLFKVRESGSLSPEHGPVVVHCSAGIGRSGTFCLADTCLLLMDKRKDPSSVDIKKVLLEMRKFRMGLIQTADQLRFSYLAVIEGAKFIMGDSSVQDQWKELSHEDLEPPPEHIPPPPRPPKRILEPHN | (1.2 ± 0.1) × 10^3 M^−1 s^−1 | – |
| Q262A: PTP1B mutant, Gln262 replaced by Ala, described previously (protein, UniProt P18031 1-435, looked up, variant Q262A) Tyrosine-protein phosphatase …: MEMEKEFEQIDKSGSWAAIYQDIRHEASDFPCRVAKLPKNKNRNRYRDVSPFDHSRIKLHQEDNDYINASLIKMEEAQRSYILTQGPLPNTCGHFWEMVWEQKSRGVVMLNRVMEKGSLKCAQYWPQKEEKEMIFEDTNLKLTLISEDIKSYYTVRQLELENLTTQETREILHFHYTTWPDFGVPESPASFLNFLFKVRESGSLSPEHGPVVVHCSAGIGRSGTFCLADTCLLLMDKRKDPSSVDIKKVLLEMRKFRMGLIATADQLRFSYLAVIEGAKFIMGDSSVQDQWKELSHEDLEPPPEHIPPPPRPPKRILEPHNGKCREFFPNHQWVKEETQEDKDCPIKEEKGSPLNAAPYGIESMSQDTEVRSRVVGGSLRGAQAASPAKGEPSLPEKDEDHALSYWKPFLVNMCVATVLTAGAYLCYRFLFNSNT | – | (8.3 ± 1.1) × 10^5 M^−1 s^−1 |
| PTP1B/D181A/Q262A, catalytic domain (residues 1 to 321) (enzyme, human, UniProt P18031 1-321, looked up, range 1-321; Used in vitro (ITC, kinetics); also called PTP1B substrate-trapping double mutant) MEMEKEFEQIDKSGSWAAIYQDIRHEASDFPCRVAKLPKNKNRNRYRDVSPFDHSRIKLHQEDNDYINASLIKMEEAQRSYILTQGPLPNTCGHFWEMVWEQKSRGVVMLNRVMEKGSLKCAQYWPQKEEKEMIFEDTNLKLTLISEDIKSYYTVRQLELENLTTQETREILHFHYTTWPAFGVPESPASFLNFLFKVRESGSLSPEHGPVVVHCSAGIGRSGTFCLADTCLLLMDKRKDPSSVDIKKVLLEMRKFRMGLIATADQLRFSYLAVIEGAKFIMGDSSVQDQWKELSHEDLEPPPEHIPPPPRPPKRILEPHN | (5.3 ± 0.5) × 10^1 M^−1 s^−1 | – |
